In the supplement of paper PMC10849652:
Some of the results follow.

Chains of the proteins cited; added tags and fusions are not shown. Lines headed by an entry give the natural chain unless they say otherwise; changes in a name come on top.
UniProt P68366, whole entry, looked up: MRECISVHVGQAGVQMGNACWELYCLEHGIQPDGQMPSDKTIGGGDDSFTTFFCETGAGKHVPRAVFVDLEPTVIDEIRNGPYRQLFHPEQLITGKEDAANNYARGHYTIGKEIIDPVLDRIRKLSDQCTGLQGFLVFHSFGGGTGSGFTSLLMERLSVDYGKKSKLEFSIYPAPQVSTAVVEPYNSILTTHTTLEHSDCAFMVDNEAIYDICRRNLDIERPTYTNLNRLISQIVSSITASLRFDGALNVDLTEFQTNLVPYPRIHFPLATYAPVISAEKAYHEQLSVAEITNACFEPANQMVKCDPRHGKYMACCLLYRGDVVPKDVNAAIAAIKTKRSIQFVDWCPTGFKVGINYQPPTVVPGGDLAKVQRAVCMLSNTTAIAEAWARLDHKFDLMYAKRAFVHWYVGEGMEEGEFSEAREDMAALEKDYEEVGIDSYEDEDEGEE
UniProt Q3B726, whole entry, looked up: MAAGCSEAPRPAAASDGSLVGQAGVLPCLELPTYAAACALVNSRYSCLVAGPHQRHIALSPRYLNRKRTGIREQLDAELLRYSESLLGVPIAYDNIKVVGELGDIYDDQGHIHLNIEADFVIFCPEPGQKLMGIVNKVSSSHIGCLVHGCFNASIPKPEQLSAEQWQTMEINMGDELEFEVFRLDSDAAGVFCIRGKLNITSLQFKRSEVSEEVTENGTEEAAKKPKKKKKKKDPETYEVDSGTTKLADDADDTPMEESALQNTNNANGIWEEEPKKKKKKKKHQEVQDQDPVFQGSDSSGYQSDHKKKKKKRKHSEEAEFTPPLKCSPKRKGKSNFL
UniProt O15042: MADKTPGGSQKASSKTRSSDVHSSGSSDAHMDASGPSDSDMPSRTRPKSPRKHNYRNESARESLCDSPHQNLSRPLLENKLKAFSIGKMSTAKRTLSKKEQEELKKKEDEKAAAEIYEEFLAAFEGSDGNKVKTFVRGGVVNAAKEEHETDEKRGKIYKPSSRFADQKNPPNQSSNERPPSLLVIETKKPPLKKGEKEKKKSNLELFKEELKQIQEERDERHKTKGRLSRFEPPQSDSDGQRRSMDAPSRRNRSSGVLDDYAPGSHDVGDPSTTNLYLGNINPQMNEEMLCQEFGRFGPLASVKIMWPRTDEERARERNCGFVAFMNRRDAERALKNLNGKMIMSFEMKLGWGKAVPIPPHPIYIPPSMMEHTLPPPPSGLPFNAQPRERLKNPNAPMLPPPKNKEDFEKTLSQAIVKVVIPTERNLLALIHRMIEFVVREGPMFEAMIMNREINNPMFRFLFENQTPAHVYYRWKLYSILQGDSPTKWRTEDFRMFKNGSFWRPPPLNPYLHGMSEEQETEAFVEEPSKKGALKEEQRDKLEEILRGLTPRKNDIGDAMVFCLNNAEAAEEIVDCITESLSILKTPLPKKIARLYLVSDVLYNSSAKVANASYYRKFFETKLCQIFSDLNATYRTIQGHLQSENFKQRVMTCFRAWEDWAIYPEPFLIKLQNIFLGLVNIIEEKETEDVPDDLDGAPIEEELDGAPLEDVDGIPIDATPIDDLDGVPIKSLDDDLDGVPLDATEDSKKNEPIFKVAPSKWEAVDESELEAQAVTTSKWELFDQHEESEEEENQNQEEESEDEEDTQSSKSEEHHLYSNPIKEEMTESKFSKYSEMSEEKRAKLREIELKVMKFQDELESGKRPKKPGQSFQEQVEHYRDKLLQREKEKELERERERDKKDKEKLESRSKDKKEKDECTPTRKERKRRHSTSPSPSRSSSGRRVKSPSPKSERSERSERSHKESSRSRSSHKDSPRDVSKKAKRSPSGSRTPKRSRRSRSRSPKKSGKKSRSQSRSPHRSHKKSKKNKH
UniProt Q8IWV7: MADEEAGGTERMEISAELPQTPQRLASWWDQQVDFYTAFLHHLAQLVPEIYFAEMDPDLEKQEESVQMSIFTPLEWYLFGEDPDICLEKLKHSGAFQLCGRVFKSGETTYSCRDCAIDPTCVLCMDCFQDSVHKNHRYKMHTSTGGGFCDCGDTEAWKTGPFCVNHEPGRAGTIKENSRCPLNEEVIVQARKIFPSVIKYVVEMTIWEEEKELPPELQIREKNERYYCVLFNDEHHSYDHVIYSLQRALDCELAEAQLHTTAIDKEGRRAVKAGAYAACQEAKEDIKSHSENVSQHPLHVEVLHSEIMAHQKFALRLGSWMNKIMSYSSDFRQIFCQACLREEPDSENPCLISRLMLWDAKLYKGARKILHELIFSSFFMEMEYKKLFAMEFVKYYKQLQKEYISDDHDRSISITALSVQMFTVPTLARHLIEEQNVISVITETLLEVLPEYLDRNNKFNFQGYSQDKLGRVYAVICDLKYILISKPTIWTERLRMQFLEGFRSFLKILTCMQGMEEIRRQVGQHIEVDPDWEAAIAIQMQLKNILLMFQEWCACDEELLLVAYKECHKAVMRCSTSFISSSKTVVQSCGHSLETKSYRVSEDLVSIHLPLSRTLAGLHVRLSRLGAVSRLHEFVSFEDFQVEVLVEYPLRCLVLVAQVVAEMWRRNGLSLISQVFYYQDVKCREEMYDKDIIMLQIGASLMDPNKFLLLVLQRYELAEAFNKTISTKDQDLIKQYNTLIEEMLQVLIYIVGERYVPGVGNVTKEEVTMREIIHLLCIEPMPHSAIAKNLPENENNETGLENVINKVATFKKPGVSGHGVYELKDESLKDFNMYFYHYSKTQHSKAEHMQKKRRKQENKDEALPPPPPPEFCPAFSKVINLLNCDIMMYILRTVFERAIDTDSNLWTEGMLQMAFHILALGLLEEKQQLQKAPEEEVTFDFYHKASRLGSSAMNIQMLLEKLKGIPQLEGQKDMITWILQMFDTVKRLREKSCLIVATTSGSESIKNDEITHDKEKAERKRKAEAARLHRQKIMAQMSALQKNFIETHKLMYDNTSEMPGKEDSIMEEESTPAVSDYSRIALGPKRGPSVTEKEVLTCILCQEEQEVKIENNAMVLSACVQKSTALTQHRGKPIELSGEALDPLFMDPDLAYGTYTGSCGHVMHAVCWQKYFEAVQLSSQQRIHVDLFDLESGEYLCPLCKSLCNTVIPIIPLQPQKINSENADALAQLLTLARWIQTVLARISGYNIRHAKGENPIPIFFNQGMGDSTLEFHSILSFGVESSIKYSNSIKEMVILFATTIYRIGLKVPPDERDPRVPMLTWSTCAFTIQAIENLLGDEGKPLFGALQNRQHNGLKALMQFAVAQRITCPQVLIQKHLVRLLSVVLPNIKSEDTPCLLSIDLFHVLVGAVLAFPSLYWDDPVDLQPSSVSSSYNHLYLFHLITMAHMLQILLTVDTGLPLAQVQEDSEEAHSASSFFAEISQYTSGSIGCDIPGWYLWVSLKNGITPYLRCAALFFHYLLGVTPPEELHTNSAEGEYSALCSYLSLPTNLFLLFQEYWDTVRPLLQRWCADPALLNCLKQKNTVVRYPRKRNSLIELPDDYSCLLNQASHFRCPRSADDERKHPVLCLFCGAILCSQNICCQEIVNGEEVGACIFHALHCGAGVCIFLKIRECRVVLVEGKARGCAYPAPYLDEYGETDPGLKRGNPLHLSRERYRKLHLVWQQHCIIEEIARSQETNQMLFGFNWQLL
UniProt P40222: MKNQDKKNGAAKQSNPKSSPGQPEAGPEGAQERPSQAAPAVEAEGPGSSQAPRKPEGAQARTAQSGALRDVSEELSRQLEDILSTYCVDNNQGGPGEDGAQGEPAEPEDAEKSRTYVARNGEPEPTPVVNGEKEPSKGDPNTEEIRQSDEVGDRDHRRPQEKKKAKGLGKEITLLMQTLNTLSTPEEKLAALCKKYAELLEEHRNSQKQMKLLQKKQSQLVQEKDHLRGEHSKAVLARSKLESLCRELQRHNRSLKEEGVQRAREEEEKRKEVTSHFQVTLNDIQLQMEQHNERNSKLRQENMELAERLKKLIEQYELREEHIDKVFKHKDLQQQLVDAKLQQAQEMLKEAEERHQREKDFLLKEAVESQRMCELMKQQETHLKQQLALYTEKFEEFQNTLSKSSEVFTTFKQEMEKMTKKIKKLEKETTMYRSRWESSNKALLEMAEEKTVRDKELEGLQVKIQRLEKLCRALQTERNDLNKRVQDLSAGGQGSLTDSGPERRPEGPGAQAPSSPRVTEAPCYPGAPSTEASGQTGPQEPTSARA
UniProt O95881: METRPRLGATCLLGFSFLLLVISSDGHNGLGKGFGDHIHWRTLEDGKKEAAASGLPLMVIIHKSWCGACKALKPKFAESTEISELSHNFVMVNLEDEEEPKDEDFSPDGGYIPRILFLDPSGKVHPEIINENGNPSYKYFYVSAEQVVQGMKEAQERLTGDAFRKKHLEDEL
UniProt Q9NV66: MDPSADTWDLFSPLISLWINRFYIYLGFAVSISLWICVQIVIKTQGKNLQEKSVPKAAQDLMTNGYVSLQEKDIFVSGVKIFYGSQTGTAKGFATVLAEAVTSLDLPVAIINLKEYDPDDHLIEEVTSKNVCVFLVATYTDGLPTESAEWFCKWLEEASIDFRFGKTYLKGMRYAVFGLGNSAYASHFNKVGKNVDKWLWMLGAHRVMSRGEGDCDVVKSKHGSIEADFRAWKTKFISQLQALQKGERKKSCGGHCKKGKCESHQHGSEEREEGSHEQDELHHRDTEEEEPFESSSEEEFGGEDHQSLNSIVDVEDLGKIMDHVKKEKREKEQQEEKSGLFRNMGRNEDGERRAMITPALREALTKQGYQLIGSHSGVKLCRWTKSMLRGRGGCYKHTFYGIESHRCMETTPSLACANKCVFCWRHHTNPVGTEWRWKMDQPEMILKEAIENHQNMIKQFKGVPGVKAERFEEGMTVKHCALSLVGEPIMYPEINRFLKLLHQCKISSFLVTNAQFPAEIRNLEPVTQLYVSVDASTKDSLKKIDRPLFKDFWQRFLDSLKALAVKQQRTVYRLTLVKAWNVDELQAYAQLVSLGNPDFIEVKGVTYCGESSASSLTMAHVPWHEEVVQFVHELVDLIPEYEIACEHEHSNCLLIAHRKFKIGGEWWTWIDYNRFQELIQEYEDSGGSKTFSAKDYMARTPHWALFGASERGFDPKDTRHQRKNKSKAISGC
UniProt Q712K3: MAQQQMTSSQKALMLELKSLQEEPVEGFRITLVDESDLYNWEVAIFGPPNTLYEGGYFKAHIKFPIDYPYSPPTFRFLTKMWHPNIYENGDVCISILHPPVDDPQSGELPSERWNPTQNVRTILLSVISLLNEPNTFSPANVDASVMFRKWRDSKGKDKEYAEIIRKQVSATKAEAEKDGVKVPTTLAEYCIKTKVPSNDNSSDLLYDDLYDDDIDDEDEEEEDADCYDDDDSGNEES
UniProt Q9Y5K5, whole entry, looked up: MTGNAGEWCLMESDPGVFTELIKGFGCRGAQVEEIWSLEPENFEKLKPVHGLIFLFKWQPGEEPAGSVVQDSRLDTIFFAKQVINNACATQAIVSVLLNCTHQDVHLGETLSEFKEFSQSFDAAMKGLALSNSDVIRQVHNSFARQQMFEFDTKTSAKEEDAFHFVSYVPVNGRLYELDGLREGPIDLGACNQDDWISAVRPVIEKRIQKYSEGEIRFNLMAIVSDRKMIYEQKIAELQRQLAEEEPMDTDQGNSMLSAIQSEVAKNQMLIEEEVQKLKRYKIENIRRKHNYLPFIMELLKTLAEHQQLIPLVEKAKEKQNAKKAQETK
UniProt Q96J42: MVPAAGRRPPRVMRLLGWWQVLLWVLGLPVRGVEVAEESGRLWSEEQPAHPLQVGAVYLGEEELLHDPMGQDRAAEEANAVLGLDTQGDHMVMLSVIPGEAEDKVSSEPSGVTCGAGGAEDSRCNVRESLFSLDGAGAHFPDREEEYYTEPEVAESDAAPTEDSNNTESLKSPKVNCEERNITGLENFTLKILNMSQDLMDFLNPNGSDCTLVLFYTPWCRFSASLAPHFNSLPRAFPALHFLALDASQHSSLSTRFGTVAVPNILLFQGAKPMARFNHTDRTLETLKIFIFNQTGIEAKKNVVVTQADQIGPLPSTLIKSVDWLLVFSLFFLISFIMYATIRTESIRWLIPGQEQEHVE
UniProt Q16763: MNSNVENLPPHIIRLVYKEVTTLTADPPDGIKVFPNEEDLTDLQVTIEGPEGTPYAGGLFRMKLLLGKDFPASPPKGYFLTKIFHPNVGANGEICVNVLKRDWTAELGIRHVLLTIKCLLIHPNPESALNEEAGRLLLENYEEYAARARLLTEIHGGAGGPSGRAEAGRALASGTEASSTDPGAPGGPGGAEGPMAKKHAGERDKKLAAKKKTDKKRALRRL
UniProt P61077: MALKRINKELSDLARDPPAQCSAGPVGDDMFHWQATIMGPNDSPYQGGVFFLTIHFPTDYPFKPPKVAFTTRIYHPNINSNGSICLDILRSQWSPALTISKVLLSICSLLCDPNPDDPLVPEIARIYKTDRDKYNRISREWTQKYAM
UniProt P63279, whole entry, looked up: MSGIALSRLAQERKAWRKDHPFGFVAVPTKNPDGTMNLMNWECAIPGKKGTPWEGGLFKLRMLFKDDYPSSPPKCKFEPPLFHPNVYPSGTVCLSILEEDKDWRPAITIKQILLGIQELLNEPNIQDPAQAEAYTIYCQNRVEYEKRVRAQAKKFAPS

Tests used:
Test in all cases: log2 fold change, soluble protein after heating vs DMSO (PISA); higher = thermal stabilisation; K562 lysate, 10 uM; active = over 0.2 and 3.5 SD of the protein, either way, in both replicates (recomputed)
nilotinib = compound: Cc1cn(-c2cc(NC(=O)c3ccc(C)c(Nc4nccc(-c5cccnc5)n4)c3)cc(C(F)(F)F)c2)cn1 [nilotinib]
In short: (§1)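 Thermal stability, expressed as log-two fold change relative to solvent controls, is given from duplicates. Crude K562 extract in PBS pH 7.4 with 1 mM MgCl2, at 1 mg/mL protein, was treated with 10 μM compound for 30 min and heated in aliquots for 3 min across 48°C-58°C. After pooling, adjustment to 0.5% NP-40 at 4°C and centrifugation at 21,000xg for 90 min, supernatant protein was measured by TMTpro 16plex LC-MS/MS with channel sums equalised.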

[1] = compound: Cc1nc(Nc2n[nH]c3c2CN(C(=O)N[C@H](CN(C)C)c2ccccc2)C3(C)C)c2sccc2n1
In short: as §1

dasatinib = compound: Cc1nc(Nc2ncc(C(=O)Nc3c(C)cccc3Cl)s2)cc(N2CCN(CCO)CC2)n1 [dasatinib]
In short: as §1

[2] = compound: Cc1ncc(-c2ccnc(Nc3ccc(S(C)(=O)=O)cc3)n2)n1C(C)C
In short: as §1

[3] = compound: Cn1cc(-c2ccc3c(c2)CCN3C(=O)Cc2cccc(C(F)(F)F)c2)c2c(N)ncnc21
In short: as §1

quisinostat = compound: Cn1cc(CNCC2CCN(c3ncc(C(=O)NO)cn3)CC2)c2ccccc21 [quisinostat]
In short: as §1

tipifarnib = compound: Cn1cncc1[C@@](N)(c1ccc(Cl)cc1)c1ccc2c(c1)c(-c1cccc(Cl)c1)cc(=O)n2C [tipifarnib]
In short: as §1

[4] = compound: NC(=O)Nc1cc(-c2cccc(F)c2)sc1C(=O)N[C@H]1CCCNC1
In short: as §1

[5] = compound: NC(=O)c1cnc(N[C@@H]2CCCC[C@@H]2N)nc1Nc1cccc(-n2nccn2)c1
In short: as §1

[6] = compound: NC1(c2ccc(-c3nc4ccn5c(=O)[nH]nc5c4cc3-c3ccccc3)cc2)CCC1
In short: as §1

Measured: log2 fold change

TUBA4A (UniProt P68366)
inactive: nilotinib 0.036 | [1] -0.024 | dasatinib -0.09 | [2] -0.009 | [3] 0.02 | quisinostat -0.024 | tipifarnib -0.012 | [4] 0.034 | [5] 0.022 | [6] -0.003

TWISTNB (UniProt Q3B726)
inactive: nilotinib 0.057 | [1] -0.017 | dasatinib -0.033 | [2] -0.053 | [3] 0.018 | quisinostat 0.145 | tipifarnib -0.097 | [4] 0.006 | [5] -0.028 | [6] -0.048

UBE3D (UniProt Q7Z6J8)
inactive: nilotinib 0.011 | [1] -0.022 | dasatinib -0.012 | [2] -0.07 | [3] -0.051 | quisinostat -0.045 | tipifarnib 0.027 | [4] 0.049 | [5] -0.001 | [6] 0.002

U2SURP (UniProt O15042)
inactive: nilotinib 0.001 | [1] -0.039 | dasatinib -0.029 | [2] 0.034 | [3] 0.046 | quisinostat 0.022 | tipifarnib 0.015 | [4] 0.021 | [5] 0.005 | [6] 0.019

UBR1 (UniProt Q8IWV7)
inactive: nilotinib -0.022 | [1] 0.01 | dasatinib -0.012 | [2] 0.013 | [3] 0.046 | quisinostat -0.093 | tipifarnib 0.007 | [4] 0.021 | [5] -0.006 | [6] -0.021

TXLNA (UniProt P40222)
inactive: nilotinib -0.018 | [1] 0.011 | dasatinib 0.011 | [2] 0.036 | [3] 0.014 | quisinostat 0.042 | tipifarnib 0.031 | [4] -0.027 | [5] 0.002 | [6] 0.013

TXNDC12 (UniProt O95881)
inactive: nilotinib 0.005 | [1] -0.002 | dasatinib -0.005 | [2] -0.047 | [3] -0.004 | quisinostat 0.075 | tipifarnib 0.059 | [4] -0.04 | [5] -0.01 | [6] 0.032

TYW1 (UniProt Q9NV66)
inactive: nilotinib -0.129 | [1] -0.036 | dasatinib -0.073 | [2] -0.1 | [3] -0.019 | quisinostat 0.105 | tipifarnib -0.088 | [4] 0.002 | [5] 0.022 | [6] 0.062

UBE2R2 (UniProt Q712K3)
inactive: nilotinib -0.011 | [1] 0.01 | dasatinib 0.046 | [2] 0.003 | [3] 0.006 | quisinostat 0.045 | tipifarnib 0 | [4] 0.016 | [5] 0.035 | [6] 0.043

UCHL5 isoform 3 (UniProt Q9Y5K5)
inactive: nilotinib 0.016 | [1] -0.008 | dasatinib 0.01 | [2] 0.001 | [3] 0.006 | quisinostat -0.01 | tipifarnib -0.005 | [4] 0.013 | [5] -0.031 | [6] 0.003

TXNDC15 (UniProt Q96J42)
inactive: nilotinib -0.033 | [1] -0.118 | dasatinib 0.033 | [2] 0.021 | [3] -0.002 | quisinostat -0.046 | tipifarnib -0.004 | [4] 0.077 | [5] -0.053 | [6] -0.028

UBE2S (UniProt Q16763)
inactive: nilotinib 0.028 | [1] 0.015 | dasatinib 0.015 | [2] -0.03 | [3] -0.042 | quisinostat -0.022 | tipifarnib -0.01 | [4] 0.008 | [5] 0.049 | [6] -0.01

UBE2D3 isoform 3 (UniProt P61077)
inactive: nilotinib 0.046 | [1] -0.071 | dasatinib 0.024 | [2] -0.012 | [3] -0.057 | quisinostat 0.011 | tipifarnib 0.015 | [4] -0.001 | [5] -0.02 | [6] -0.015

UBE2I (UniProt P63279)
inactive: nilotinib 0.006 | [1] 0.011 | dasatinib -0.003 | [2] -0.009 | [3] 0.004 | quisinostat -0.008 | tipifarnib 0.031 | [4] 0.006 | [5] -0.028 | [6] -0.024

Taken from the results shown (two entries):
UCHL5 isoform 3 (UniProt Q9Y5K5)
inactive: nilotinib 0.016 | [1] -0.008 | dasatinib 0.01 | [2] 0.001 | [3] 0.006 | quisinostat -0.01 | tipifarnib -0.005 | [4] 0.013 | [5] -0.031 | [6] 0.003

TXNDC15 (UniProt Q96J42)
inactive: nilotinib -0.033 | [1] -0.118 | dasatinib 0.033 | [2] 0.021 | [3] -0.002 | quisinostat -0.046 | tipifarnib -0.004 | [4] 0.077 | [5] -0.053 | [6] -0.028
